Experimental data from the supplement of paper PMC5949888.
Most values lie at the floor of the assay. Slopes are relative: functional sequences can read slightly below zero.

system: Saccharomyces cerevisiae PS128 hsf1 delta, HSF1(1-493) fusion; assay: growth estimate (transactivation domain function in HSF1 fusion, heat-shock survival) (a.u. (slope of normalised read count over time)); higher = stronger growth at 37°C, i.e. more transactivation activity; conditions: library: random library
Description: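 Random 60-nt DNA library encoding peptides of up to 20 aa, fused to the C-terminus of yeast HSF1 residues 1-493 (C-terminal TAD deleted) and expressed from the native HSF1 promoter on a CEN plasmid in hsf1-deleted S. cerevisiae PS128. Cells were selected at 37°C on -trp 5-FOA plates for 0, 2, 4, 6 and 8 days and amplicons were sequenced. Growth estimate is the slope of a robust linear fit of total-sum-normalised read counts (normalised to the first time point) over time, using at least 2 replicates. Sequences are classed functional (TAD activity) above a threshold of -0.13, set from stop-codon control sequences.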

Row | Substance | growth estimate
1 | GTILHQDLNRFTSSQAD | -0.197
2 | GTILRRGITSVTPVEH | < -0.25
3 | GTIR | < -0.25
4 | GTISASHVIGPDALQGICAY | < -0.25
5 | GTLDFYKALTYMSKSHLYHA | < -0.25
6 | GTLGLLGPASCPPLTRCRNG | < -0.25
7 | GTLHLPYESRWDSLYSVCDA | < -0.25
8 | GTLIEESDAYAR | < -0.25
9 | GTLTFKRIRLVILTSCTTTQ | < -0.25
10 | GTMLERRT | -0.0197
11 | GTMYPSRPDRSKALHSASPL | < -0.25
12 | GTNMESGVGRIITGGYCRAW | < -0.25
13 | GTNPVDHSLGVSRSNTALRR | -0.246
14 | GTPIR | < -0.25
15 | GTPR | < -0.25
16 | GTPSLWPLPLQLVDMECKA | < -0.25
17 | GTPSVYQYTLCSFESQSQFP | -0.219
18 | GTQRAWRKSLSIRLD | < -0.25
19 | GTR | < -0.25
20 | GTRRETYSKDVGWLICGVAL | < -0.25
21 | GTRV | < -0.25
22 | GTRVVAQPCGAIGMHVERGP | < -0.25
23 | GTS | < -0.25
24 | GTSCPCIVNTGCTRNVFFVT | < -0.25

Row | Substance | growth estimate
25 | GTSFHAIG | < -0.25
26 | GTSGKSCYP | < -0.25
27 | GTSGLTLLSAIFGRASSMTG | < -0.25
28 | GTSGSFDLCRVRLCYKKGPL | < -0.25
29 | GTSLNLAFGTVPRAEGPAEK | < -0.25
30 | GTSSVLLVLYLL | < -0.25
31 | GTT | < -0.25
32 | GTTGGLMGRAWDAVWRGCCG | < -0.25
33 | GTTSDHTCCNIKAIH | < -0.25
34 | GTVGPGCVLSWYYHALHCSD | < -0.25
35 | GTVRMMVAASPRRTARTVLR | < -0.25
36 | GTYCCRIDLACDESRRTG | < -0.25
37 | GTYRSDL | < -0.25
38 | GVAGAFSPSSDLRHIRAHFG | < -0.25
39 | GVAQKGFLSTGRARDGCGEA | < -0.25
40 | GVCIYPRQLRVNFLTVRPGG | < -0.25
41 | GVDIKRS | < -0.25
42 | GVEDGAAPRFPPRRSTSSNS | < -0.25
43 | GVEEINGNIKTVNRLRTNNA | < -0.25
44 | GVEHWVRYSLRVRVVYCTSQ | < -0.25
45 | GVEKC | < -0.25
46 | GVERVYASNTRRFMYIANGN | < -0.25
47 | GVFAEAGPQGRPVTILLWSF | < -0.25
48 | GVFHLSTKGLLFKDKSLALR | -0.231

Row | Substance | growth estimate
49 | GVFYPIWRRSAAKHICLPSE | < -0.25
50 | GVGFG | < -0.25
51 | GVGVGRRWCQLS | < -0.25
52 | GVGVYPEAYTRRG | < -0.25
53 | GVH | < -0.25
54 | GVI | < -0.25
55 | GVIGLASSSISSRDRRPGTL | < -0.25
56 | GVIGTSSHAPYELTGRFYAH | < -0.25
57 | GVKARTRSAKVATRRALRR | < -0.25
58 | GVKFVCSFVF | < -0.25
59 | GVKLGGVPPLRRTDRRYLGS | < -0.25
60 | GVKRDSASFQ | < -0.25
61 | GVKSI | < -0.25
62 | GVKTLGFVPISSFVFRGRLA | < -0.25
63 | GVKVKALASNSSQSGDGGAF | < -0.25
64 | GVLHLY | < -0.25
65 | GVLIGHHCEWSWVCPCSF | 0.0976
66 | GVLLRRVRVLCDRRLSFAVV | < -0.25
67 | GVLMINN | < -0.25
68 | GVLTEVSRAVRGSVRRSAVS | < -0.25
69 | GVLVATFRVYSDMRNGRTA | -0.163
70 | GVMAEWDKRVHRIM | < -0.25
71 | GVNGSTPHVRRRVVNA | < -0.25
72 | GVNTRRVGRDGREMRLLCTH | < -0.25

Row | Substance | growth estimate
73 | GVPCETEMVLIVTCLDLLKA | < -0.25
74 | GVPGLLSEFLLI | 1.43
75 | GVPISLARAHYRLLFVQRTW | < -0.25
76 | GVPVVWLGGERLVDIIRFIQ | < -0.25
77 | GVQILRV | < -0.25
78 | GVQVLVAEYVNKQPWVSSRC | < -0.25
79 | GVRADRLYVQKLIHS | < -0.25
80 | GVRALFSAGVSSAIVDRPSS | < -0.25
81 | GVRGPVGCSIGATVAQGTGP | < -0.25
82 | GVRGQYVSKKTGHYSRFYLT | < -0.25
83 | GVRLLFAYASGPRWTFDLGR | < -0.25
84 | GVRMIGARQFKVELQCSKLG | < -0.25
85 | GVRNPVCLRSCYGAMRS | < -0.25
86 | GVRRAVSSYGRVKRLTRPTK | < -0.25
87 | GVRRRY | < -0.25
88 | GVSFCCARRVAQ | < -0.25
89 | GVSGRT | < -0.25
90 | GVSGRTAHIHSELSIVRNAN | < -0.25
91 | GVSHRRLLSCG | < -0.25
92 | GVSKFGGI | < -0.25
93 | GVSLMFDKFR | < -0.25
94 | GVSQSGDGRRQLDLLNQQGS | < -0.25
95 | GVSRRLLIVIDTAVRVRGGA | < -0.25
96 | GVSTSVYGRPYE | < -0.25

Row | Substance | growth estimate
97 | GVTELF | < -0.25
98 | GVTGDSGDRALTRDIFYGWH | -0.245
99 | GVTIVGGTSGPTNVWSGLRC | < -0.25
100 | GVVLINSKIRAVTCVV | < -0.25
101 | GVVPRITPGERTAVLAHSPE | < -0.25
102 | GVWFSVGYIPIDWHCGDWRV | < -0.25
103 | GVWGTLRLITRRPEVPMNNR | < -0.25
104 | GWEARTPSLARYEDIPCLVL | < -0.25
105 | GWGEEN | < -0.25
106 | GWGLDKTQGC | < -0.25
107 | GWICLW | < -0.25
108 | GWIENTGPGRKSAGGPLTLS | < -0.25
109 | GWKEAHAPGIEFCKRKRVPA | < -0.25
110 | GWLQRRLMLLGRSRGHTGLS | < -0.25
111 | GWNRL | < -0.25
112 | GWPDVR | < -0.25
113 | GWQ | < -0.25
114 | GWQMGNIVLEH | < -0.25
115 | GWQSPATAGYFAPRTTSLLV | < -0.25
116 | GWRC | < -0.25
117 | GWRDASHPPSLSLKTYIRSE | < -0.25
118 | GWRGKSGFWCATRTL | < -0.25
119 | GWSCT | < -0.25
120 | GWSDRAVYGQFVADASCVAG | < -0.25

Row | Substance | growth estimate
121 | GWSERLRALSYLQVCIGVHR | < -0.25
122 | GWSSVKYGATAPCRECVLYP | < -0.25
123 | GWT | < -0.25
124 | GWTLKWPLVARVRGRKYSSK | < -0.25
125 | GWVKLMFRRLKVGDYNNQLN | -0.0001
126 | GWVRLTERLTDYGGHIWDFI | < -0.25
127 | GWYSAHMGRVIIHWFWPY | < -0.25
128 | GYCRPQPFQVHDPCRAVIMR | < -0.25
129 | GYDNIVEFS | 0.0712
130 | GYGSSIYSDGWQTVTLRVRG | < -0.25
131 | GYGYLSGRPPLEQIL | < -0.25
132 | GYIC | < -0.25
133 | GYIGTAGLW | < -0.25
134 | GYINGHRRGQLLQPGLS | < -0.25
135 | GYIRVPVIPRGYAIA | < -0.25
136 | GYKFTL | < -0.25
137 | GYLPYYRLEMSYQFLNWVAY | < -0.25
138 | GYNDQTGPCATHRKNPPSIA | < -0.25
139 | GYPIGDPHLVATRWALRQGH | < -0.25
140 | GYQAGLGIGPKTTVDSEWIW | -0.183
141 | GYRGGDEGSPVHRGTLNECT | < -0.25
142 | GYRPLTVTRYLQIMSTSDHR | < -0.25
143 | GYSLVTYVALLPRAGGIRSQ | < -0.25
144 | GYVVRIHAAPPRSS | < -0.25

6 entries picked at random from those above:
Row | Substance | growth estimate
56 | GVIGTSSHAPYELTGRFYAH | < -0.25
49 | GVFYPIWRRSAAKHICLPSE | < -0.25
12 | GTNMESGVGRIITGGYCRAW | < -0.25
40 | GVCIYPRQLRVNFLTVRPGG | < -0.25
66 | GVLLRRVRVLCDRRLSFAVV | < -0.25
133 | GYIGTAGLW | < -0.25

Entries 10 to 15 of the list above:
Row | Substance | growth estimate
10 | GTMLERRT | -0.0197
11 | GTMYPSRPDRSKALHSASPL | < -0.25
12 | GTNMESGVGRIITGGYCRAW | < -0.25
13 | GTNPVDHSLGVSRSNTALRR | -0.246
14 | GTPIR | < -0.25
15 | GTPR | < -0.25

Continuation.

Row | Substance | growth estimate
145 | GYW | < -0.25
146 | GYYDRDQTPAKS | < -0.25
147 | GYYGLLRGFEPLLSTTSPVS | < -0.25
148 | GYYIEFQV | < -0.25
149 | HAASRSVVMLIGSWLDLYNT | < -0.25
150 | HAFRRGLVCRGYKWDCAENG | -0.245
151 | HAFYIGVDTESIKNLRPVVG | < -0.25
152 | HAGLLATIMPLVEPG | < -0.25
153 | HAILMTFDARLRLNFKRSTV | < -0.25
154 | HALCLEGIRNSIVV | -0.246
155 | HALT | < -0.25
156 | HAMTVARPGL | < -0.25
157 | HANIISLPV | < -0.25
158 | HAPAQCLTQRKEDTHRRGRW | < -0.25
159 | HAPFQGLSLERRRAESWLRQ | < -0.25
160 | HARARRARRSVSHLCNNEAA | < -0.25
161 | HARDGSFEYSSRRSVSLQTV | -0.243
162 | HASFSREPEAFSATVIC | < -0.25
163 | HASVWGS | < -0.25
164 | HATLRG | < -0.25
165 | HAVIGYPSLLIPRGSTDWGP | < -0.25
166 | HCCGVRCSGNPTA | < -0.25
167 | HCGFLLLNLYRQIRLVGYEV | < -0.25
168 | HCHRIQRHLKSAEHVED | < -0.25

Row | Substance | growth estimate
169 | HCLIFEYRRRIASDIS | < -0.25
170 | HCPLARGVR | -0.245
171 | HCPVNCGARYLP | < -0.25
172 | HCV | < -0.25
173 | HCWMVMVSERMGAVGSRAVE | < -0.25
174 | HCYEVQKEAEWGKSAKGRYC | < -0.25
175 | HDGCSFNHEIVMVEH | < -0.25
176 | HDGEI | < -0.25
177 | HDGRVNWLVYSICSWLRV | -0.243
178 | HDHRVRWLHGPAGKLLYRSL | < -0.25
179 | HDIFEHSSAATGTLTTDQ | < -0.25
180 | HDITDA | < -0.25
181 | HDMAKYMLLWDYGGTWVSTR | < -0.25
182 | HDPAIARTSRRLNRDYRYVA | < -0.25
183 | HDTNTMRGYLFAGRLARLPC | < -0.25
184 | HDTTLGWKSLSQLSGIFPSS | -0.245
185 | HEA | < -0.25
186 | HECVSHSSGARNPRIRSDLP | < -0.25
187 | HEFKCRYRTR | < -0.25
188 | HEG | < -0.25
189 | HEHSPTGTVRKK | < -0.25

As entered above.
GWRGKSGFWCATRTL – growth estimate: < -0.25
GVPISLARAHYRLLFVQRTW – growth estimate: < -0.25
